Laboratory results published in patent US20030040612A1 (MOUNT SINAI SCHOOL OF MEDICINE, published 2003).
Results are given in words; binding and its absence hold for the method and conditions named. Some results given as binding are weak or reduced against the parent protein; the word gives no strength.

Assays:
[1] = target: T1, SNT-1 PTB domain (residues 11-140 of SEQ ID NO:1) (human) (UniProt Q8WU20); assay: NMR HSQC spectra
T1 sequence: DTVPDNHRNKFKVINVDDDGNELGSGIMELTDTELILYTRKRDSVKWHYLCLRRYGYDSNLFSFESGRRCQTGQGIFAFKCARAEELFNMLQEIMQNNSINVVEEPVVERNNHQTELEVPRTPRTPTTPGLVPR

[2] = target: T1, SNT-1 PTB domain (residues 11-140 of SEQ ID NO:1) (human); assay: NMR structure of the 1:1 complex
[3] = target: T1, SNT-1 PTB domain (residues 11-140 of SEQ ID NO:1) (human); assay: NMR titration, HSQC chemical shift perturbation

Measured: binding

B1: hFGFR1 peptide, 22-residue peptide derived from the juxtamembrane region of hFGFR1 (residues 409-430 of SEQ ID NO:2), HSQMAVHKLAKSIPLRRQVTVS (SEQ ID NO:3) (peptide)
peptide: HSQMAVHKLAKSIPLRRQVTVS
notes: Synthetic peptide, not phosphorylated; also called FGFR peptide; FGF receptor peptide
binds: [1] | [2] | [3]
